Drawing on publication PMC10758121, “Miconazole-like Scaffold is a Promising Lead for Naegleria fowleri-Specific CYP51 Inhibitors” (Journal of Medicinal Chemistry, 2023), this text covers EC50 for one compound.

Experiment [1] relates to N. fowleri European KUL strain. The note with it: read-out: anti-Naegleria potency (EC50); cited from earlier work.
The subject of experiment [2] is N. fowleri European KUL strain. Nature of the experiment: Naegleria cell-based assay, dose–response (CellTiter-Glo viability, 48 h). In general terms: ATP-based viability assays read luminescence as a measure of living cells.

Where two headings read alike, the source gives them in different places.

A word on the EC50: it is the concentration that produces a half-maximal response. Consider `Clc1ccc(COC(Cn2ccnc2)c2ccc(Cl)cc2Cl)c(Cl)c1` (stereo not drawn) [Compound 1, miconazole], for which the EC50 in experiment [1] is less than 2 µM; in experiment [2] (concentration for 50% growth inhibition from dose–response curves, triplicate, axenically cultured N. fowleri trophozoites), 1.4 ± 0.02 µM; in experiment [2] (supplement CSV) it was 2 ± 0.04 µM.
